Structures can show the parent of a compound that is named as a salt. ± gives the standard deviation of the averaged measurements. This is one part of the list. The data scatter; read single values as rough.
Experiments:
[1] = tested on: hAMSC donor 1; assay: Hoechst total cell count ratio vs vehicle control; higher = more cells (less toxicity)
[2] = tested on: hAMSC donor 2; assay: as above
[3] = tested on: hAMSC donor 1; assay: transgenic luciferase activity (RLU/mg protein) fold change vs vehicle control (ratio); higher = more transgene expression
[4] = tested on: hAMSC donor 1; assay: transfection efficiency (EGFP+ cells / Hoechst count) fold change vs vehicle control (ratio); higher = enhanced transfection
[5] = tested on: hAMSC donor 2; assay: as above
[6] = tested on: hAMSC donor 2; assay: transgenic luciferase activity (RLU/mg protein) fold change vs vehicle control (ratio); hAMSC are human adipose-derived mesenchymal stem cells given an EGFP-luciferase plasmid by lipofection; higher = more transgene expression
[7] = priming compound concentration 0.2 µM
[8] = priming compound concentration 1.7 µM
[9] = priming compound concentration 13 µM

SMILES	Hoechst total cell count ratio [1, 7]	Hoechst total cell count ratio [1, 8]	Hoechst total cell count ratio [1, 9]	Hoechst total cell count ratio [2, 7]	Hoechst total cell count ratio [2, 8]	Hoechst total cell count ratio [2, 9]	transgenic luciferase activity [3, 9]	transfection efficiency [4, 7]	transfection efficiency [4, 8]	transfection efficiency [4, 9]	transfection efficiency [5, 7]	transfection efficiency [5, 8]	transfection efficiency [5, 9]	transgenic luciferase activity [6, 8]	transgenic luciferase activity [3, 8]	transgenic luciferase activity [6, 9]
CCCc1nc(C)c2c(=O)nc(-c3cc(S(=O)(=O)N4CCN(CC)CC4)ccc3OCC)[nH]n12 [Vardenafil citrate]	1.25 ± 0.34	1.28 ± 0.23	1.1 ± 0.083	1.11 ± 0.1	1.2 ± 0.053	1.15 ± 0.015	0.556 ± 0.12	1.23 ± 0.18	1.11 ± 0.19	1.28 ± 0.24	1.01 ± 0.26	0.947 ± 0.046	1.12 ± 0.24			
CCOC(=O)OC(C)OC1=C(C(=O)Nc2ccccn2)N(C)S(=O)(=O)c2ccccc21 (configuration not stated) [Ampiroxicam]	1.21 ± 0.081	1.21 ± 0.2	0.991 ± 0.15	1.3 ± 0.07	1.03 ± 0.16	0.996 ± 0.17	0.903 ± 0.1	1.06 ± 0.17	1.03 ± 0.076	1.27 ± 0.39	0.932 ± 0.083	1.23 ± 0.26	1.56 ± 0.66			
CO[C@H]1/C=C/O[C@@]2(C)Oc3c(C)c(O)c4c(O)c(c5c(nc6cc(C)ccn65)c4c3C2=O)NC(=O)/C(C)=C\C=C\[C@H](C)[C@H](O)[C@@H](C)[C@@H](O)[C@@H](C)[C@H](OC(C)=O)[C@@H]1C [Rifaximin]	1.46 ± 0.14	1.22 ± 0.063	1.25 ± 0.16	1.11 ± 0.081	1.28 ± 0.097	1.09 ± 0.46	1.09 ± 0.59	0.825 ± 0.076	0.891 ± 0.11	0.678 ± 0.14	0.972 ± 0.017	0.927 ± 0.088	0.784 ± 0.26			
CN1CCC(=C2c3ccccc3CC(=O)c3sccc32)CC1 [Ketotifen fumarate]	1.35 ± 0.44	1.25 ± 0.16	1.54 ± 0.068	1.22 ± 0.096	1.37 ± 0.085	1.34 ± 0.096		0.895 ± 0.18	1.4 ± 0.18	0.874 ± 0.15	1.07 ± 0.17	1.22 ± 0.22	1.26 ± 0.033	0.419 ± 0.097		
C[C@@H](c1ncncc1F)[C@](O)(Cn1cncn1)c1ccc(F)cc1F [Voriconazole]	1.23 ± 0.27	1.15 ± 0.19	1.25 ± 0.084	1.22 ± 0.32	1.14 ± 0.21	1.15 ± 0.12	0.738 ± 0.18	0.871 ± 0.11	1.26 ± 0.16	0.867 ± 0.051	1.21 ± 0.21	1.46 ± 0.1	1.14 ± 0.057			
Cc1c(O)cccc1C(=O)N[C@@H](CSc1ccccc1)[C@H](O)CN1C[C@H]2CCCC[C@H]2C[C@H]1C(=O)NC(C)(C)C [Nelfinavir mesylate]	1.59 ± 0.2	1.45 ± 0.13	1.33 ± 0.099	1.06 ± 0.14	1.06 ± 0.15	1.16 ± 0.093		1.17 ± 0.33	1.18 ± 0.28	0.861 ± 0.24	1.26 ± 0.24	1.11 ± 0.26	1.03 ± 0.053	0.586 ± 0.088		
CCC1=C(C)CN(C(=O)NCCc2ccc(S(=O)(=O)NC(=O)N[C@H]3CC[C@H](C)CC3)cc2)C1=O [Glimepiride]	1.19 ± 0.12	1.12 ± 0.065	1.03 ± 0.099	1.38 ± 0.17	1.266 ± 0.01	1.35 ± 0.047	1.41 ± 0.32	0.928 ± 0.34	0.834 ± 0.086	1.22 ± 0.092	0.961 ± 0.27	0.988 ± 0.066	0.949 ± 0.22			
CCOc1cc(N)c(Cl)cc1C(=O)NCC1CN(Cc2ccc(F)cc2)CCO1 (configuration not stated) [Mosapride citrate]	1.33 ± 0.071	1.38 ± 0.24	1.38 ± 0.22	0.953 ± 0.14	1.04 ± 0.14	1.48 ± 0.036		1.64 ± 0.15	1.61 ± 0.22	1.16 ± 0.2	1.18 ± 0.16	1.14 ± 0.089	1.2 ± 0.16	0.5433 ± 0.0032		
CCN(CC)CCOC(=O)c1ccc(N)cc1 [Procaine hydrochloride]	1.23 ± 0.15	1.17 ± 0.045	1.18 ± 0.085	1.11 ± 0.19	0.943 ± 0.11	1.1 ± 0.27		1.12 ± 0.18	0.865 ± 0.13		1.11 ± 0.33	1.32 ± 0.065	1.27 ± 0.19		0.703 ± 0.16	
CNC(=C[N+](=O)[O-])NCCSCc1csc(CN(C)C)n1 [Nizatidine]	1.37 ± 0.088	1.53 ± 0.08	1.33 ± 0.2	1.01 ± 0.21	0.944 ± 0.19	1.12 ± 0.45	0.729 ± 0.11	1.02 ± 0.071	1.09 ± 0.17	0.887 ± 0.17	1.15 ± 0.42	1.58 ± 0.23	0.886 ± 0.21			
C/C=C1\[C@H]2C=C(C)C[C@]1(N)c1ccc(=O)[nH]c1C2 [Huperzine A]	1.51 ± 0.068	1.54 ± 0.18	1.58 ± 0.21	1.06 ± 0.078	0.984 ± 0.22	1.31 ± 0.31		0.971 ± 0.12	1.1 ± 0.17	0.923 ± 0.21	0.994 ± 0.083	1.23 ± 0.071	1.21 ± 0.35	0.969 ± 0.34		
CC(=O)OCC(=O)NCCCOc1cccc(CN2CCCCC2)c1 [Roxatidine acetate hydrochloride]	1.46 ± 0.063	1.14 ± 0.25	1.27 ± 0.16	0.886 ± 0.16	1.11 ± 0.036	1.43 ± 0.026		0.743 ± 0.05	1.14 ± 0.11	1.12 ± 0.072	1.19 ± 0.13	1.27 ± 0.074	1.26 ± 0.15	0.68 ± 0.04		
N[C@@H](C(=O)N[C@@H]1C(=O)N2C(C(=O)O)=C(CSc3cn[nH]n3)CS[C@H]12)c1ccc(O)cc1 [Cefatrizine propylene glycol]	1.43 ± 0.26	1.08 ± 0.11	1.45 ± 0.074	1.18 ± 0.096	1.34 ± 0.053	1.39 ± 0.075		1.1 ± 0.22	1.62 ± 0.16	1.31 ± 0.2	0.921 ± 0.061	1.03 ± 0.064	1.04 ± 0.064	0.521 ± 0.093		
COc1ccc2[nH]c([S@@+]([O-])Cc3ncc(C)c(OC)c3C)nc2c1 [Esomeprazole magnesium]	1.61 ± 0.38	1.21 ± 0.19	1.32 ± 0.041	1.07 ± 0.1	1.13 ± 0.053	1.36 ± 0.12		0.778 ± 0.23	1.16 ± 0.083	1.29 ± 0.36	1.21 ± 0.12	0.935 ± 0.12	1.06 ± 0.2	0.523 ± 0.023		
COc1ccc2c3c1O[C@H]1C[C@@H](O)C=C[C@@]31CCN(C)C2 [Galanthamine hydrobromide]	1.72 ± 0.12	1.23 ± 0.21	2.05 ± 0.2	1.04 ± 0.1	0.944 ± 0.073	0.914 ± 0.08		0.761 ± 0.29	1.29 ± 0.072	0.339 ± 0.08	1.1 ± 0.3	1.356 ± 0.01	0.932 ± 0.14			0.891 ± 0.093
CCCN1CCCC[C@H]1C(=O)Nc1c(C)cccc1C [Ropivacaine hydrochloride]	0.97 ± 0.15	1.02 ± 0.12	1 ± 0.02	1.25 ± 0.071	0.942 ± 0.11	0.915 ± 0.043		0.988 ± 0.58	0.887 ± 0.14	1.26 ± 0.4	0.944 ± 0.2	1.43 ± 0.12	1.46 ± 0.1			0.543 ± 0.24

Look-ups from the results shown:
Under transfection efficiency [4, 7], `CO[C@H]1/C=C/O[C@@]2(C)Oc3c(C)c(O)c4c(O)c(c5c(nc6cc(C)ccn65)c4c3C2=O)NC(=O)/C(C)=C\C=C\[C@H](C)[C@H](O)[C@@H](C)[C@@H](O)[C@@H](C)[C@H](OC(C)=O)[C@@H]1C` [Rifaximin] has the entry 0.825 ± 0.076
Under Hoechst total cell count ratio [2, 7], `CCCN1CCCC[C@H]1C(=O)Nc1c(C)cccc1C` [Ropivacaine hydrochloride] has the entry 1.25 ± 0.071
